# From the supplement of paper PMC12067093, “Discovery and optimisation of a covalent ligand for TRIM25 and its application to targeted protein ubiquitination” (Chemical Science, 2025)
# The chains behind the UniProt entries cited, without tags or fusion partners. Where a name states a change or a piece, a line headed by the entry shows the natural chain unless it says otherwise.
# UniProt Q8TDW0: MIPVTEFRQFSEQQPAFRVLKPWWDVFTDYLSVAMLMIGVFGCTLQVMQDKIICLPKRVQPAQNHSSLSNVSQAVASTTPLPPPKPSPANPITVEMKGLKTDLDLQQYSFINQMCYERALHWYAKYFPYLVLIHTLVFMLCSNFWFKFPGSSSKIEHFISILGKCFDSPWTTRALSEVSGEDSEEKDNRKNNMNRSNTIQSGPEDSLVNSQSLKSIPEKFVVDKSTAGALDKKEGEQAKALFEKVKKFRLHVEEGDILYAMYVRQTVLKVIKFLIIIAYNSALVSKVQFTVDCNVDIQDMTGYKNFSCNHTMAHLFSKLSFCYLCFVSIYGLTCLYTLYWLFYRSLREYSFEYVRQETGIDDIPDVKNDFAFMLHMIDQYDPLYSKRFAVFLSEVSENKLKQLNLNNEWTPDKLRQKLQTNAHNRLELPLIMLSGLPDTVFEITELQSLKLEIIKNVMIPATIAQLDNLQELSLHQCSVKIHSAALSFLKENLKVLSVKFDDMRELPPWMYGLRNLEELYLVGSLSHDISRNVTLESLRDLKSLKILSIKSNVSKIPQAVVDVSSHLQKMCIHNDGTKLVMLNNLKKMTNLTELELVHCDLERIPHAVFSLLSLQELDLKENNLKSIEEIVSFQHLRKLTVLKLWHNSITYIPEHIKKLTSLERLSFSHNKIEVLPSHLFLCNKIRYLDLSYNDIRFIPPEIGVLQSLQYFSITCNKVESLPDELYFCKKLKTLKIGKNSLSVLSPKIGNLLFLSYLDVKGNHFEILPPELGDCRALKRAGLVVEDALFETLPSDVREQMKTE
# UniProt P09960: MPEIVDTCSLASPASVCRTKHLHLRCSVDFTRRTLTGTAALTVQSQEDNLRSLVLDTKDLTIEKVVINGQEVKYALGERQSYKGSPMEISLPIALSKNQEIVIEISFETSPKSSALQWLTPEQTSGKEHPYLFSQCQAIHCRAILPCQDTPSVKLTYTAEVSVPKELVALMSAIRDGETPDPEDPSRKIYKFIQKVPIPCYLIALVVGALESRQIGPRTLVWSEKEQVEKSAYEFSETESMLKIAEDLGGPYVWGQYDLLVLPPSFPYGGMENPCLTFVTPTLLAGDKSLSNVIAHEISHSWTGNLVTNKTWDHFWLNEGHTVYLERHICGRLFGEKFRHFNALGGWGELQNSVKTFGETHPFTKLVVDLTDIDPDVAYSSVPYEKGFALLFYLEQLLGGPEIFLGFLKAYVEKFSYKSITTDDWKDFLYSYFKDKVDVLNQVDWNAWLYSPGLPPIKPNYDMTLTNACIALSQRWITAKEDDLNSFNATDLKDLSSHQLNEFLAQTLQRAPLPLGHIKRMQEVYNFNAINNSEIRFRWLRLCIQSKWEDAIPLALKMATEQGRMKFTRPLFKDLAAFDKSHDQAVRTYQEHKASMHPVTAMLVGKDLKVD
# UniProt Q9UGP4: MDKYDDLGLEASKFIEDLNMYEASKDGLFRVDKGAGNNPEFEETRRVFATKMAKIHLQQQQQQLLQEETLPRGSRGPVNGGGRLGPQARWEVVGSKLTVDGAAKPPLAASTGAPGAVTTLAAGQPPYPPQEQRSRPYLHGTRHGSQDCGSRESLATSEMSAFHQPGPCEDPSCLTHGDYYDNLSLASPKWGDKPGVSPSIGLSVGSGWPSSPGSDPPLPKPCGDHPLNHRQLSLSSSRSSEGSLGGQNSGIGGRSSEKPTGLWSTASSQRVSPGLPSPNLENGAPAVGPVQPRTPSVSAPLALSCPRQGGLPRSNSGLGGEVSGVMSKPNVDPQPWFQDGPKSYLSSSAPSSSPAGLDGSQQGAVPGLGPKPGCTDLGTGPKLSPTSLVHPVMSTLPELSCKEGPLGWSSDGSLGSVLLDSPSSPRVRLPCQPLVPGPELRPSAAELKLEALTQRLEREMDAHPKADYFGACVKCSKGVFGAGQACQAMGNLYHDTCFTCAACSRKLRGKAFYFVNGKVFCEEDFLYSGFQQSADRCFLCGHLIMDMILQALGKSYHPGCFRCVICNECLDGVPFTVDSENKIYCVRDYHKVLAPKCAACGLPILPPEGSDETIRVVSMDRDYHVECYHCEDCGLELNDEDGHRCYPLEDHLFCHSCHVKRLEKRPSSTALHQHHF
# UniProt Q8N1G4: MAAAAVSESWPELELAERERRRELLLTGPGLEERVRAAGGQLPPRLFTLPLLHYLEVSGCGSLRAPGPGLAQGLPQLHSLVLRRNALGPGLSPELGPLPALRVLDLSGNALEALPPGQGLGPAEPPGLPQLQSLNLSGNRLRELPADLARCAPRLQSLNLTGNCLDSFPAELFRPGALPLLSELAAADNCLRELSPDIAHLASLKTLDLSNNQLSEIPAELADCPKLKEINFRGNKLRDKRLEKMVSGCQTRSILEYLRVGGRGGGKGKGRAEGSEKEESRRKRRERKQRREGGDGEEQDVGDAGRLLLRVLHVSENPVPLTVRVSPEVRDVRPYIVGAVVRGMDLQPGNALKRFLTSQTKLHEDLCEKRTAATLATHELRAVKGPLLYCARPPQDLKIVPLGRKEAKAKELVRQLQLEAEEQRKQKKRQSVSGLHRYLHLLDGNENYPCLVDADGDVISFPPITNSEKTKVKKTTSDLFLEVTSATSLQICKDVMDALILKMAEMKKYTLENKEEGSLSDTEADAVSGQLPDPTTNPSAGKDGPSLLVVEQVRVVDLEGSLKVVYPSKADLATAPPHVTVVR
# UniProt Q96L50: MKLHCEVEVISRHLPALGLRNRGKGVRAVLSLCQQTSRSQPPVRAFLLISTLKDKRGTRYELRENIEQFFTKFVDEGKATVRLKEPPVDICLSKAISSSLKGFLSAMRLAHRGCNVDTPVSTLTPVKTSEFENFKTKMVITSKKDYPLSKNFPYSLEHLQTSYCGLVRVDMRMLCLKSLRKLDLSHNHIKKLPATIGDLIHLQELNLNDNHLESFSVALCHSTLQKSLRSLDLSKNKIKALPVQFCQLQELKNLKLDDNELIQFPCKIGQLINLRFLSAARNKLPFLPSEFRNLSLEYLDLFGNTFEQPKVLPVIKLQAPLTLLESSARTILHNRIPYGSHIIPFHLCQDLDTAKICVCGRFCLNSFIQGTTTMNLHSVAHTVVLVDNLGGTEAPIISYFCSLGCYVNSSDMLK
# UniProt P48449: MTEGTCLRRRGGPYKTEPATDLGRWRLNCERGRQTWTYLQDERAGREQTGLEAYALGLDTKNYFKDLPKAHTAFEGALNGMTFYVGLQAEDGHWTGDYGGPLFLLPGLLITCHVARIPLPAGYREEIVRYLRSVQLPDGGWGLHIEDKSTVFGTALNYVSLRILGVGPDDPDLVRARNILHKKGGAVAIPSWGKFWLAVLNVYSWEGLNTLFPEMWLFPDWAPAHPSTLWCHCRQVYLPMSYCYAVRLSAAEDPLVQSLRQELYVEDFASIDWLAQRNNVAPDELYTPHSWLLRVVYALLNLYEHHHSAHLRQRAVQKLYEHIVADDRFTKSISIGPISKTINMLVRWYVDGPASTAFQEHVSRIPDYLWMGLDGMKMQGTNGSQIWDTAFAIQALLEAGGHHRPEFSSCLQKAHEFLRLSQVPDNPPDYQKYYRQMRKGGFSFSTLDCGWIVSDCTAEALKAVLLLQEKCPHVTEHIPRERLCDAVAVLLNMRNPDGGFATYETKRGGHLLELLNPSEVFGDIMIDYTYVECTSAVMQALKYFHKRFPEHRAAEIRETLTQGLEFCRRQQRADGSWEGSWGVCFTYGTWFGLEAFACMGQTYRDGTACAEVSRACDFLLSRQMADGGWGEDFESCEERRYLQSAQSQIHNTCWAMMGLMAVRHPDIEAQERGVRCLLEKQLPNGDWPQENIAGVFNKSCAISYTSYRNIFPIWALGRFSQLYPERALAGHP
# UniProt P18858, whole entry, looked up: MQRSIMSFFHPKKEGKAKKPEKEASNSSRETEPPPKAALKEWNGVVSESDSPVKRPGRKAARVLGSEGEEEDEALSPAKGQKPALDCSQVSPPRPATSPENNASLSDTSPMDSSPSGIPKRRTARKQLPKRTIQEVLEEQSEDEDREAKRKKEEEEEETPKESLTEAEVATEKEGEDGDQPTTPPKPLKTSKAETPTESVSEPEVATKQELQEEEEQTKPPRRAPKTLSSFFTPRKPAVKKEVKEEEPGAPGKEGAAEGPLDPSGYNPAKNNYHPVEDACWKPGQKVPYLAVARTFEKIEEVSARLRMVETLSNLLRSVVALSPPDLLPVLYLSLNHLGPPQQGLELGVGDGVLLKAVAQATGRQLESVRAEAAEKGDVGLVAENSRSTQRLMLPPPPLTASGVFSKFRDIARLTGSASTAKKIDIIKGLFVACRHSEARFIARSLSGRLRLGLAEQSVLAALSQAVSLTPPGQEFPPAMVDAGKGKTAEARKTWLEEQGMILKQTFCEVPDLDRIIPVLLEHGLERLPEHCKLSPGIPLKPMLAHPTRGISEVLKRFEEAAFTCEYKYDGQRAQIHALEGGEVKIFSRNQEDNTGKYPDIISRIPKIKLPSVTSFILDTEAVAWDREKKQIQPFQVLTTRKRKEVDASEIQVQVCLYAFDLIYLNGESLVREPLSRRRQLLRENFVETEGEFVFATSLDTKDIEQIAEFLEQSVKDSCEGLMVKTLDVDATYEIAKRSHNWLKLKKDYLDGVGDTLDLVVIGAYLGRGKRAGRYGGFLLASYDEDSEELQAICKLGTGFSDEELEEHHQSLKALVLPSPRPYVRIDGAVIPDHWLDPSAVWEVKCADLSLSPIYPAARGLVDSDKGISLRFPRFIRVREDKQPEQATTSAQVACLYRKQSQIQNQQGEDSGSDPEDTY
# UniProt Q8ND56: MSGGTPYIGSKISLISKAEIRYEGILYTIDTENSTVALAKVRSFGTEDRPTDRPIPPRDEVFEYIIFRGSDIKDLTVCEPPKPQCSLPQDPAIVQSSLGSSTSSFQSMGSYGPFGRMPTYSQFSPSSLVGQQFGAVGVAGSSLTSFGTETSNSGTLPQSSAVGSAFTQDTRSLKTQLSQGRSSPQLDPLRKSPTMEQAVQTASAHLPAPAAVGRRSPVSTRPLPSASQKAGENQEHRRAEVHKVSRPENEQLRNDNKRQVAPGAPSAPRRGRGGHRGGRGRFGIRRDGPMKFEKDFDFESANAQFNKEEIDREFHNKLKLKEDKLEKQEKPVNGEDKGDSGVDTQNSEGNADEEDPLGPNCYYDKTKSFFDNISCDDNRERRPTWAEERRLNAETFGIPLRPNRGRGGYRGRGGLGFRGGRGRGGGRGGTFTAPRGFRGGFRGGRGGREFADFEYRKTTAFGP
# UniProt P48059, whole entry, looked up: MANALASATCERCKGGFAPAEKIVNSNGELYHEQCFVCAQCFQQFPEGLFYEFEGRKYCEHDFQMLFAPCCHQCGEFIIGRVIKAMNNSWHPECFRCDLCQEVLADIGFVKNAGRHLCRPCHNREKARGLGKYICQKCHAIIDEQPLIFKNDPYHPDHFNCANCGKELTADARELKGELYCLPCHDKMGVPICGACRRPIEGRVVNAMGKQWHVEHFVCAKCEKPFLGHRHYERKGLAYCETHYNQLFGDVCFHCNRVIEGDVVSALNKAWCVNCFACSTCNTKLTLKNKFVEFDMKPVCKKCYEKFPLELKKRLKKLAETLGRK
# UniProt O60711: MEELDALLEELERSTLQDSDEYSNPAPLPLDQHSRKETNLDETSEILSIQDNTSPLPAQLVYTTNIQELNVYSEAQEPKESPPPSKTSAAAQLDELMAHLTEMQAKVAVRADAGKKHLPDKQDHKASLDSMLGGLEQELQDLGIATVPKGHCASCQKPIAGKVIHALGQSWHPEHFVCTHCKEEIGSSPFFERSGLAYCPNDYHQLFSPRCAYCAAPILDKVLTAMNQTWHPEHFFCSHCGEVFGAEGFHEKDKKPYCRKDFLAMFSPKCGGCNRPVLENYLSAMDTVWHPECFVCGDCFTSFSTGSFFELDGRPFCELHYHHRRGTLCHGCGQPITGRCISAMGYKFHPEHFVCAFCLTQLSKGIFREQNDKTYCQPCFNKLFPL
# UniProt Q9H2I8: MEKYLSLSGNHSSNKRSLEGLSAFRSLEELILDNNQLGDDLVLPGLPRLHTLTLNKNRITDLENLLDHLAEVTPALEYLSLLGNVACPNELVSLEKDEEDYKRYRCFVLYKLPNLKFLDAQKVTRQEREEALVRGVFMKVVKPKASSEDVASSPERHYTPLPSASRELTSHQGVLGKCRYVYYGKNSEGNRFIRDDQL
# UniProt Q96CX6, whole entry, looked up: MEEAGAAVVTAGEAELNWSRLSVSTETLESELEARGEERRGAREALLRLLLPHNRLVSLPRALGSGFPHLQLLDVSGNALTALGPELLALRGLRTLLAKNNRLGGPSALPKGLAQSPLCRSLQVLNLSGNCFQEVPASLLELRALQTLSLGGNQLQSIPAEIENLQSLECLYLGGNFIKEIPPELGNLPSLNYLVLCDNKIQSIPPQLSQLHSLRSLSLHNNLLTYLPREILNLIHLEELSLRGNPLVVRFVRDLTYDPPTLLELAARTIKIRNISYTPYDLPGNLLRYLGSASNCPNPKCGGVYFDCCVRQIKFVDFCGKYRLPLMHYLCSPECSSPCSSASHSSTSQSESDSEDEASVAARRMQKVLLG
# UniProt Q9UK45: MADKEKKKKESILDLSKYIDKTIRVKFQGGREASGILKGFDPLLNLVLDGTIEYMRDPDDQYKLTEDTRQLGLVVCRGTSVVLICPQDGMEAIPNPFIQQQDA
# The list shows a part of the results.
# Compound: Cc1cc(ccc1-c1ccccc1)C(=O)N1CCCN(CC1)C(=O)CCl [compound 10]
# Assay: probe-labelled cysteine peptide fold change vs DMSO (competition) (log2 fold change); higher = less target engagement (more negative = stronger competition)
# Settings: THP-1, incubation time: 4 h
# 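Further: competitive profiling in live THP-1 cells: cysteine peptides tagged with an iodoacetamide desthiobiotin (IA-DTB) probe, intensity after compound treatment relative to DMSO-treated cells.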
target,measurement,setting,value
LRRC8C_Q8TDW0_774_GNHFEILPPELGDCR (UniProt Q8TDW0),probe-labelled cysteine peptide fold change,10 µM,0.0341
same,probe-labelled cysteine peptide fold change,50 µM,0.337
LTA4H_P09960_26_CSVDFTR (UniProt P09960),probe-labelled cysteine peptide fold change,10 µM,-0.0479
same,probe-labelled cysteine peptide fold change,50 µM,0.0202
LIG3_P49916_724_WCTVTK (UniProt P49916),probe-labelled cysteine peptide fold change,10 µM,0.00591
same,probe-labelled cysteine peptide fold change,50 µM,-0.00822
LIMK1_P53667_84_YGESCHGCSEQITK (UniProt P53667),probe-labelled cysteine peptide fold change,10 µM,0.0187
same,probe-labelled cysteine peptide fold change,50 µM,-0.262
LRPPRC_P42704_208_LIASYCNVGDIEGASK (UniProt P42704),probe-labelled cysteine peptide fold change,10 µM,0.0733
same,probe-labelled cysteine peptide fold change,50 µM,0.194
LMAN2_Q12907_239_NCIDITGVR (UniProt Q12907),probe-labelled cysteine peptide fold change,10 µM,0.112
same,probe-labelled cysteine peptide fold change,50 µM,0.322
LONP1_P36776_520_ILCFYGPPGVGK (UniProt P36776),probe-labelled cysteine peptide fold change,10 µM,0.133
same,probe-labelled cysteine peptide fold change,50 µM,0.17
LTN1_O94822_723_ACPSSDK (UniProt O94822),probe-labelled cysteine peptide fold change,10 µM,0.117
same,probe-labelled cysteine peptide fold change,50 µM,-0.394
LIMD1_Q9UGP4_305_TPSVSAPLALSCPR (UniProt Q9UGP4),probe-labelled cysteine peptide fold change,10 µM,-0.198
same,probe-labelled cysteine peptide fold change,50 µM,-0.543
LRRC47_Q8N1G4_190_PGALPLLSELAAADNCLR (UniProt Q8N1G4),probe-labelled cysteine peptide fold change,10 µM,-0.322
same,probe-labelled cysteine peptide fold change,50 µM,0.0652
LRRFIP1_Q32MZ4_726_SEDADRCTLPEHESPSQDISDACEAESTER (UniProt Q32MZ4),probe-labelled cysteine peptide fold change,10 µM,-0.0306
same,probe-labelled cysteine peptide fold change,50 µM,-0.346
LGALSL_Q3ZCW2_41_LIVPFCGHIK (UniProt Q3ZCW2),probe-labelled cysteine peptide fold change,10 µM,-0.185
same,probe-labelled cysteine peptide fold change,50 µM,-0.331
LRR1_Q96L50_91_LKEPPVDICLSK (UniProt Q96L50),probe-labelled cysteine peptide fold change,10 µM,-0.0559
same,probe-labelled cysteine peptide fold change,50 µM,-0.245
LRP1_Q07954_2741_FCSEAQFECQNHR (UniProt Q07954),probe-labelled cysteine peptide fold change,10 µM,0.101
same,probe-labelled cysteine peptide fold change,50 µM,0.282
LSS_P48449_700_SCAISYTSYR (UniProt P48449),probe-labelled cysteine peptide fold change,10 µM,-0.0343
same,probe-labelled cysteine peptide fold change,50 µM,-0.0793
LRBA_P50851_2740_TLEGPENCLKPK (UniProt P50851),probe-labelled cysteine peptide fold change,10 µM,-0.0198
same,probe-labelled cysteine peptide fold change,50 µM,-0.0803
LMNB2_Q03252_212_CQSLQEELDFR (UniProt Q03252),probe-labelled cysteine peptide fold change,10 µM,0.196
same,probe-labelled cysteine peptide fold change,50 µM,0.443
LPCAT2_Q7L5N7_228_SCLITFKPGAFIPGVPVQPVLLR (UniProt Q7L5N7),probe-labelled cysteine peptide fold change,10 µM,0.218
same,probe-labelled cysteine peptide fold change,50 µM,-0.034
LPCAT4_Q643R3_206_WPQVLFFPEGTCSNKK (UniProt Q643R3),probe-labelled cysteine peptide fold change,10 µM,-0.0653
same,probe-labelled cysteine peptide fold change,50 µM,-0.0994
LIN9_Q5TKA1_435_CEEEAQEIVR (UniProt Q5TKA1),probe-labelled cysteine peptide fold change,10 µM,0.251
same,probe-labelled cysteine peptide fold change,50 µM,0.243
LIG1_P18858_508_QTFCEVPDLDR (UniProt P18858),probe-labelled cysteine peptide fold change,10 µM,-0.0499
same,probe-labelled cysteine peptide fold change,50 µM,-0.0138
LTA4H_P09960_136+141_EHPYLFSQCQAIHCR (UniProt P09960),probe-labelled cysteine peptide fold change,10 µM,0.0569
same,probe-labelled cysteine peptide fold change,50 µM,-0.0361
LRCH4_O75427_134_NQLSLLPPYICQLPLR (UniProt O75427),probe-labelled cysteine peptide fold change,10 µM,0.247
same,probe-labelled cysteine peptide fold change,50 µM,0.132
LSS_P48449_471_CPHVTEHIPR (UniProt P48449),probe-labelled cysteine peptide fold change,10 µM,-0.184
same,probe-labelled cysteine peptide fold change,50 µM,-0.209
LRRC8C_Q8TDW0_728_VESLPDELYFCK (UniProt Q8TDW0),probe-labelled cysteine peptide fold change,10 µM,-0.0868
same,probe-labelled cysteine peptide fold change,50 µM,0.479
LRRC47_Q8N1G4_249_MVSGCQTR (UniProt Q8N1G4),probe-labelled cysteine peptide fold change,10 µM,-0.251
same,probe-labelled cysteine peptide fold change,50 µM,-0.184
LRRC59_Q96AG4_48_ATILDLSCNK (UniProt Q96AG4),probe-labelled cysteine peptide fold change,10 µM,-0.0204
same,probe-labelled cysteine peptide fold change,50 µM,-0.101
LSM14A_Q8ND56_375_SFFDNISCDDNR (UniProt Q8ND56),probe-labelled cysteine peptide fold change,10 µM,-0.548
same,probe-labelled cysteine peptide fold change,50 µM,0.261
LGALS1_P09382_17_PGECLR (UniProt P09382),probe-labelled cysteine peptide fold change,10 µM,0.368
same,probe-labelled cysteine peptide fold change,50 µM,0.795
LIMS1_P48059_300_FVEFDMKPVCK (UniProt P48059),probe-labelled cysteine peptide fold change,10 µM,-0.109
same,probe-labelled cysteine peptide fold change,50 µM,-0.372
LRPPRC_P42704_848_GDLSTALEVAIDCYEK (UniProt P42704),probe-labelled cysteine peptide fold change,10 µM,0.146
same,probe-labelled cysteine peptide fold change,50 µM,0.228
LPXN_O60711_178+181_VIHALGQSWHPEHFVCTHCK (UniProt O60711),probe-labelled cysteine peptide fold change,10 µM,0.117
same,probe-labelled cysteine peptide fold change,50 µM,-0.151
LRMDA_Q9H2I8_106_CFVLYK (UniProt Q9H2I8),probe-labelled cysteine peptide fold change,10 µM,0.108
same,probe-labelled cysteine peptide fold change,50 µM,0.0381
LRRC58_Q96CX6_131_SLQVLNLSGNCFQEVPASLLELR (UniProt Q96CX6),probe-labelled cysteine peptide fold change,10 µM,0.0351
same,probe-labelled cysteine peptide fold change,50 µM,-0.219
LSM7_Q9UK45_76_QLGLVVCR (UniProt Q9UK45),probe-labelled cysteine peptide fold change,10 µM,0.319
same,probe-labelled cysteine peptide fold change,50 µM,0.0239
LIMD1_Q9UGP4_401_LSPTSLVHPVMSTLPELSCK (UniProt Q9UGP4),probe-labelled cysteine peptide fold change,10 µM,-0.0884
same,probe-labelled cysteine peptide fold change,50 µM,-0.436
LIG1_P18858_846_CADLSLSPIYPAAR (UniProt P18858),probe-labelled cysteine peptide fold change,10 µM,0.126
same,probe-labelled cysteine peptide fold change,50 µM,0.0205

# 3 entries from above, with tabs.
target	measurement	setting	value
LPXN_O60711_178+181_VIHALGQSWHPEHFVCTHCK (UniProt O60711)	probe-labelled cysteine peptide fold change	10 µM	0.117
LRMDA_Q9H2I8_106_CFVLYK (UniProt Q9H2I8)	probe-labelled cysteine peptide fold change	50 µM	0.0381
LRRC58_Q96CX6_131_SLQVLNLSGNCFQEVPASLLELR (UniProt Q96CX6)	probe-labelled cysteine peptide fold change	50 µM	-0.219
